Patent US20220204611A1
Changes are numbered by the printed parent chain. These are yes or no findings as the source states them, for the method shown. Some binding calls cover weakened binding; strength is not graded here.

T1: human TREM2 (human) (UniProt Q9NZC2)
T1 sequence: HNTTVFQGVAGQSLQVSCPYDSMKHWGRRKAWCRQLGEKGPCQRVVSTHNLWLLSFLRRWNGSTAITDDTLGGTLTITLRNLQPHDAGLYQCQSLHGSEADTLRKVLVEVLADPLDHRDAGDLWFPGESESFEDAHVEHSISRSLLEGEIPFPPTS

B1: V3 (Fab, V domains shown)
VH: EVQLVQSGAEVKKPGESLKISCKGSGYSFASYWIAWVRQMPGKGLEWMGIIYPGDSDTRYSPSFQDQVTISADKSISTAYLQWSSLKASDTAMYFCARGRTFYYDSSDYFDYWGQGTLVTVSS
VL: DIQMTQSPSSVSASVGDRVTITCRASQGISSWLAWYQQKPGKAPKLLIYAASSRQNGVPSRFSGSGSGTDFTLTISSLQPEDFATYFCQQADRFPRTFGQGTKLEIK
B2: V60 (Fab, V domains shown)
VH: B1 VH with S28H, A30T, T58V, D66G, G99Q, F110S
VL: B1 VL with R54L, N56R, Q89G, R93S
B3: V76 (Fab, V domains shown)
VH: B1 VH with A30G, S63E, D66G, G99Q, F110S
VL: B1 VL with R54L, N56K, T69R, R93S
B4: V84 (Fab, V domains shown)
VH: B1 VH with S28G, A30T, D66G, G99Q, F110S
VL: B1 VL with A50G, R54L, R93S
B5: V73 (Fab, V domains shown)
VH: B1 VH with A30G, S63G, D66G
VL: B1 VL with R93S, F94Y
B6: V52 (Fab, V domains shown)
VH: B1 VH with A30E, D66G
VL: B1 VL with R54L, N56R
B7: V48 (Fab, V domains shown)
VH: B1 VH with A30G, T58V, D66G, G99M
VL: B1 VL with R54L, N56T, R93S, F94L
B8: V90 (Fab, V domains shown)
VH: B1 VH with A30T, Y32E, D66G, G99Q
VL: B1 VL with S31R, R54L, R93S
B9: V24 (Fab, V domains shown)
VH: B1 VH with A30T, T58V, D66G, G99S
VL: B1 VL with R54L, N56K, R93S, R96H
B10: V40 (Fab, V domains shown)
VH: B1 VH with A30G, T58V, D66G, G99Q, F110S
VL: B1 VL with R54L, N56L
B11: V27 (Fab, V domains shown)
VH: B1 VH with A30T, S61A, D66G, A97V, G99S
VL: B1 VL with R54L, N56R, R93S
B12: V49 (Fab, V domains shown)
VH: B1 VH with A30N, I50T, Y60L, D66G, G99S
VL: B1 VL with R93S, F94Y

Target: T1, human TREM2 (human)
Experiment: yeast-displayed Fab FACS

binding, binds:
B1
B2
B3
B4
B5
B6
B7
B8
B9
B10
B11
B12
